PubChem BioAssay AID1259354 (Paczesny and Yang Labs, IUPUI and University of Michigan, 2018)
Values joined by “and” are separate entries in the source; they are usually repeats but may differ in a detail not shown here. Equal values may be shown once. Hit rate of the full screen: of about 78,000 compounds, about 1,800 (2.3%) were called active. Inconclusive results, whose numbers are uncertain, are shown with a selection of clear calls. Rule as the data show it: active = inhibition above about 30%; inconclusive = mostly about 10% to 28%; inactive = weaker than that.

The chains behind the UniProt entries cited, without tags or fusion partners. Where a name states a change or a piece, a line headed by the entry shows the natural chain unless it says otherwise.
UniProt Q01638: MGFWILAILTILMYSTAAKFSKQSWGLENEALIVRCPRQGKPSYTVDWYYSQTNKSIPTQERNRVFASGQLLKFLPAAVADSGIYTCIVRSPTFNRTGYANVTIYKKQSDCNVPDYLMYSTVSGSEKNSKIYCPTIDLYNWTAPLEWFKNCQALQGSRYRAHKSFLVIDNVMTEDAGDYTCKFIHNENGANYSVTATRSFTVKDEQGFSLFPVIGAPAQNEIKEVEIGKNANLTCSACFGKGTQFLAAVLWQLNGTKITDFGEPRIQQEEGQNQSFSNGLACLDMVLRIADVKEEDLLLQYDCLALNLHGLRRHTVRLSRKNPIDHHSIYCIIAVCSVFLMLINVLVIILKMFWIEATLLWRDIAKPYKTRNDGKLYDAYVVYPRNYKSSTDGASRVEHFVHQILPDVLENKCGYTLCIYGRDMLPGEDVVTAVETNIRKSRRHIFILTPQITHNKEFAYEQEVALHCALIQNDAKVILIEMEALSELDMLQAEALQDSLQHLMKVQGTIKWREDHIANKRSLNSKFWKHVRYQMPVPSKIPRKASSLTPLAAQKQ

Target: Interleukin-1 receptor-like 1 (Homo sapiens) (UniProt Q01638)
Experiment: blocks human ST2 binding to IL-33, primary screen, biochemical, AlphaLISA (AID 1259354)
Conditions: AlphaLISA ST2-Fc/biotin-IL-33 interaction, 1 h; at 17 µM, active compounds read high

SMILES | inhibition
Cc1ccc(-c2nc(CNC(=O)c3cccnn3)[nH]c2-c2ccccn2)cc1 | inconclusive: 15%
CCC(C(=O)NCCN(CC)c1ccccc1)N1C(=O)COc2ccccc21 (configuration not stated) | inconclusive: 12%
CCOc1ccc(/C=c2\sc3n(c2=O)CN(c2cccc([N+](=O)[O-])c2)CN=3)cc1 | inconclusive: 22%
CCCCCCSc1nnc2c(n1)OC(C)N(C(C)=O)c1ccccc1-2 (configuration not stated) | inconclusive: 28%
C=CCNC(=O)c1c[nH]n2c(=O)c(Cc3ccc(F)cc3)c(C)nc12 | inactive
Cc1cccc(-n2ncc3c(NCCO)ncnc32)c1 | inconclusive: 10%
COc1ccccc1NC(=O)C1=C(C)Nc2nc3ccccc3n2C1c1ccc(Cl)cc1 (configuration not stated) | inconclusive: 14%
CCCCn1c(CN2CCN(c3ccc(OC)cc3)CC2)nc2c1c(=O)[nH]c(=O)n2C | inconclusive: 10%
COc1ccccc1-n1c(O)c(C=Nc2ccccc2C)c2ccccc2c1=O | inconclusive: 22%
Cc1ccc(-c2nc(N3CCC(CO)CC3)ncc2-c2ccc(CO)cc2)cc1 | inconclusive: 22%
CC1=C[C@@H](CNC(=O)c2ccco2)[C@H](C(C)C)C[C@H]1CC(=O)N(C)Cc1cccnc1 | inactive
O=C(CCCOc1ccc(Cl)cc1Cl)N1CCN(c2ccc(F)cc2)CC1 | inconclusive: 10%
COc1cccc(-c2cnc(-c3ccncc3)nc2C2CCN(Cc3ccc(OC)c(C)c3)CC2)c1 | inconclusive: 10%
COc1cccc(-c2nnnn2[C@H]2CO[C@H]3[C@@H]2OC[C@@H]3NS(=O)(=O)c2cccs2)c1 | inconclusive: 17%
CCC(NC(=O)Cn1cc(C)c(=O)[nH]c1=O)c1nc(C)c(C)s1 (configuration not stated) | inconclusive: 16%
COc1ccc(OC)c(C2C(C(=O)OCc3ccccc3)=C(C)Nc3ncnn32)c1 (configuration not stated) | inactive
CCN(C(=O)CCN1CCC(N2CCCC2=O)CC1)c1ccccc1 | inconclusive: 17%
Cc1ccc2oc(=O)c(C=C(O)c3ccc(Br)cc3)nc2c1 | inconclusive: 11%
COc1ccc([N+](=O)[O-])cc1NC(=O)CCN1CCCCCC1 | inconclusive: 13%
O=C(NCc1cccs1)C(=O)Nc1ccccc1Cl | inactive
O=C(NCc1cccnc1)c1ccc(CSc2ncn[nH]2)o1 | inconclusive: 12%
O=C1C(Nc2ccc(Br)cc2)=CC(=NS(=O)(=O)c2cccs2)c2ccccc21 | active: 79%
CCOC(=O)C1=C(C)NC2=C(C(=O)C(C(=O)OC)C(C)C2)C1c1ccc(Cl)cc1Cl (configuration not stated) | inactive

SMILES | inhibition
CC(C)N1CCn2nc(C(=O)N3CCC(c4cccc(O)c4)CC3)cc2C1 | inconclusive: 10%
Cc1ccccc1OCc1nc(C#N)c(NCCCn2ccnc2)o1 | inconclusive: 11%
CC(NC(=O)c1cc(C(=O)NC(C)c2ccccc2)cc([N+](=O)[O-])c1)c1ccccc1 (configuration not stated) | inactive
c1ccc(CCCCNC2CCC3(CCNCC3)CC2)nc1 | inconclusive: 10%
CCCc1ccc(Oc2cn[nH]c2-c2ccc(O)c(C)c2O)cc1 | inactive
O=C1NCCN(C(=O)c2ccc(Cn3cnnn3)cc2)C1c1cccc(F)c1 (configuration not stated) | inconclusive: 10%
COc1cc(/C=C/C(=O)OCC2OC(OC3(CO)OC(CO)C(O)C3O)C(O)C(O)C2O)ccc1O (configuration not stated) | inconclusive: 12%
O=C(O)c1ccc(N=Cc2cc(Br)cc(Cl)c2O)cc1 | inactive
CCN(CC)Cc1cnc2c(C(=O)NC3CCc4ccccc43)cnn2c1 (configuration not stated) | inactive
O=C1c2ccccc2/C(=C\c2ccccc2)N1Cc1ccc(Cl)cc1 | inactive
O=C(CSc1nnc(-c2ccco2)c(-c2ccco2)n1)Nc1cccc(Br)c1 | inconclusive: 15%
O=C(CSc1nc2c(c(=O)n1-c1ccc(Br)cc1)SCC2)NCc1ccco1 | inconclusive: 12%
O=C(C[C@@H]1O[C@H](CNC(=O)Nc2ccccc2)[C@@H](O)[C@H]1O)NCCN1CCOCC1 | inconclusive: 13%
COCCCNC(=O)c1cc(=O)[nH]c2ccc(S(=O)(=O)N3CCCCCC3)cc12 | inconclusive: 16%
O=C(c1ccc(Cl)cc1)N(c1ccccc1)C1C=CS(=O)(=O)C1 (configuration not stated) | inconclusive: 13%
CCn1ncc(C(=O)NCc2ccc3c(c2)CC(C)O3)c1C (configuration not stated) | inconclusive: 13%
Cc1ccccc1CCN1CCC(CN(C(=O)c2ccc3n[nH]nc3c2)C2CCCC2)CC1 | inactive
N#CC1=C(N)SC(N)=C(C#N)C1c1cc(Br)ccc1F | inconclusive: 16%
COc1ccc2c(c1)C=C([C@@H]1C[C@H]3CN(CCc4ccccc4)C(=O)[C@]34CCCN14)CO2 | inconclusive: 11%
CCCN(CCC)C(=O)c1sc2nc(C)nc(N3CCN(c4ccccn4)CC3)c2c1C | inconclusive: 20%
O=c1c2c(nc(SCc3cccc(F)c3)n1-c1ccccc1)CCS2 | inconclusive: 26% and inconclusive: 13%
COCC(=O)Nc1ccc(-c2nc3ccc(C)cc3s2)cc1 | inactive
CCCN1C(=O)S/C(=C\c2c(NCC)nc3ccccn3c2=O)C1=O | inconclusive: 13%

Sorted by SMILES length (descending): three of the compounds above
SMILES | inhibition
CCOC(=O)C1=C(C)NC2=C(C(=O)C(C(=O)OC)C(C)C2)C1c1ccc(Cl)cc1Cl (configuration not stated) | inactive
CCC(NC(=O)Cn1cc(C)c(=O)[nH]c1=O)c1nc(C)c(C)s1 (configuration not stated) | inconclusive: 16%
Cc1ccc2oc(=O)c(C=C(O)c3ccc(Br)cc3)nc2c1 | inconclusive: 11%

The listing continues:

SMILES | inhibition
CCCOc1ccccc1/C=C1\N=C(c2ccccc2)OC1=O | inconclusive: 21%
O=C(Nc1ccc(Cl)cn1)c1cc(-c2ccccc2)nc2ccccc12 | inconclusive: 11%
CCOC(=O)C1=C(N)OC2=C(C(=O)CC(c3ccccc3)C2)C1c1cccc(OC)c1OC (configuration not stated) | inactive
CCOC(=O)C(C)Sc1nc2c(c(=O)n1-c1ccc(OCC)cc1)SCC2 (configuration not stated) | inconclusive: 16%
CCn1nc(C(=O)N(C)Cc2ccco2)c2c1CCC(NCc1ccc3c(c1)OCO3)C2 (configuration not stated) | inconclusive: 11%
O=C(NC(Nc1ccccc1F)C(Cl)(Cl)Cl)c1cccs1 (configuration not stated) | inactive
O=C1C[C@H]2CC[C@@H](CN1)N2Cc1cn[nH]c1-c1ccc(F)cc1 | inactive
CCCCN(Cc1ccco1)C(=O)C(C)c1ccccc1 (configuration not stated) | inconclusive: 22%
O=C(Nc1ccccc1C(F)(F)F)c1cnc2n(c1=O)CCS2 | inactive
O=C(Nc1cccc(C(F)(F)F)c1)c1cc2ccccc2o1 | inconclusive: 10%
CCCN(CCC)CCCNS(=O)(=O)c1cccc2cccnc12 | inconclusive: 17%
CC[N+](CC)(CC)CC(=O)Nc1c(C)cccc1C | inconclusive: 16%
O=C(NC1CCCC1)c1ccc2c(c1)N(Cc1ccc(F)cc1)C(=O)CS2 | inactive
O=C(Nc1ccc(Cl)cc1Cl)c1cnccn1 | inconclusive: 26%
O=C(CCCN1C(=O)S/C(=C\C=C\c2ccccc2)C1=O)Nc1ccc(C(=O)O)cc1 | active: 32%
O=C(CN1C(=O)CC(c2ccccc2)Sc2ccccc21)NCc1ccc2c(c1)OCO2 (configuration not stated) | inconclusive: 17%
Cc1cc(C)cc(-n2ccnc2-c2cnc(N(C)C)nc2)c1 | inconclusive: 16%
Cc1noc(C)c1S(=O)(=O)N1CCC(C(=O)Nc2ccc(Cl)cc2)CC1 | inactive
C=CCNC(=O)CN(c1ccc(OC)c(Cl)c1)S(C)(=O)=O | inactive
O=C(NCCN1C(=O)c2cccc([N+](=O)[O-])c2C1=O)c1ccncc1 | inactive
Cc1ccc(-c2cc(F)c3c(c2)CC(CNC(=O)CCc2cccnc2)O3)cc1F (configuration not stated) | inconclusive: 18%
CN(Cc1ccccc1)S(=O)(=O)c1ccc2c(c1)CCN2C(=O)C1CCC1 | inconclusive: 12%
CC(C)CCCC1CN(C(=O)c2ccccc2-c2nn[nH]n2)CCO1 (configuration not stated) | inconclusive: 10%

SMILES | inhibition
Cc1noc(C)c1C(=O)N1CCc2c(c(C(=O)N(C)Cc3cscn3)nn2Cc2ccccc2)C1 | inconclusive: 13%
CC(=O)c1cc2c(cc1NC(=O)c1ccccc1Br)OCCO2 | inactive
COc1ccc(-c2ccc[nH]2)cc1 | active: 42%
Cc1ccc(C(=O)Nc2ccc(-c3nc4ncccc4o3)cc2)cc1C | inactive
CN(CC[C@H]1CN(C(=O)Cc2ccccc2)CC[C@H]1CC(=O)O)c1ccccc1 | inactive
O=c1/c(=C/c2cccc([N+](=O)[O-])c2)sc2n1CN(c1cccc(C(F)(F)F)c1)CN=2 | inactive
Cc1ccccc1OCc1nc(C#N)c(N2CCCC2)o1 | active: 71%
Cc1nc(CNC(=O)Cc2cnc3c(C)cccn23)nc2c1CCCC2 | inconclusive: 10%
Cc1cccc(-n2cc(CNC(=O)C3CC(=O)N(CC(C)C)C3)cn2)c1 (configuration not stated) | inconclusive: 15%
N#Cc1c2c(c(N3CCCC3)n3c1nc1ccccc13)CCC2 | inconclusive: 15%
Cc1ccc(-c2nnc(-c3nc(NC4CCS(=O)(=O)C4)c4ccccc4n3)o2)cc1 (configuration not stated) | inactive
CCN(CC)C(=O)CC[C@H]1CNC(=O)[C@@H]2[C@@H](CCN2Cc2ccc(O)cc2)N1C | inconclusive: 28%
O=C(CSc1nnc(-c2cccnc2)n1-c1ccccc1)c1ccc(Cl)cc1 | inactive
Cc1ccc(Oc2nc3c(c(=O)n(Cc4ccccc4F)c(=O)n3C)n2C)cc1 | inconclusive: 22%
CCc1cccc(-n2c(CNC)n[nH]c2=O)c1 | inconclusive: 22%
Cc1cc(C)n(-c2ccccc2F)c(=O)c1C#N | inconclusive: 14%
CCN(C(=O)c1ccccc1NCC(=O)O)C1CCOC(C)(C)C1 (configuration not stated) | inactive
Cc1c(C(=O)N2CCCCC2)oc2ccc(S(=O)(=O)N3CC(C)CC(C)C3)cc12 (configuration not stated) | inactive
CCN(C(=O)COc1ccccc1)c1nnc(-c2ccc(Cl)cc2)s1 | inconclusive: 22%
Cc1ccc(-c2csc(/C(C#N)=C/c3cccnc3)n2)c(C)c1 | active: 34%
N#Cc1nc(COc2ccccc2Cl)oc1NCCN1CCOCC1 | inconclusive: 12%
O[C@@H]1C[C@@H](c2nc(-c3cccnc3)no2)N(CCCc2ccccc2)C1 | inconclusive: 14%
CC(=O)Nc1cccc(C(=O)Nc2ccccc2Cl)c1 | inactive

Of the compounds above, these have a cyano group.
SMILES | inhibition
Cc1ccccc1OCc1nc(C#N)c(NCCCn2ccnc2)o1 | inconclusive: 11%
N#CC1=C(N)SC(N)=C(C#N)C1c1cc(Br)ccc1F | inconclusive: 16%
Cc1ccccc1OCc1nc(C#N)c(N2CCCC2)o1 | active: 71%
N#Cc1c2c(c(N3CCCC3)n3c1nc1ccccc13)CCC2 | inconclusive: 15%
Cc1cc(C)n(-c2ccccc2F)c(=O)c1C#N | inconclusive: 14%
Cc1ccc(-c2csc(/C(C#N)=C/c3cccnc3)n2)c(C)c1 | active: 34%
N#Cc1nc(COc2ccccc2Cl)oc1NCCN1CCOCC1 | inconclusive: 12%
